Measurements from “University of Dundee, Small-Polar-MMV Screening Library” (2021), ChEMBL document CHEMBL3988442.

The chains behind the UniProt entries cited, without tags or fusion partners.
UniProt E9BF75, entry or part of it: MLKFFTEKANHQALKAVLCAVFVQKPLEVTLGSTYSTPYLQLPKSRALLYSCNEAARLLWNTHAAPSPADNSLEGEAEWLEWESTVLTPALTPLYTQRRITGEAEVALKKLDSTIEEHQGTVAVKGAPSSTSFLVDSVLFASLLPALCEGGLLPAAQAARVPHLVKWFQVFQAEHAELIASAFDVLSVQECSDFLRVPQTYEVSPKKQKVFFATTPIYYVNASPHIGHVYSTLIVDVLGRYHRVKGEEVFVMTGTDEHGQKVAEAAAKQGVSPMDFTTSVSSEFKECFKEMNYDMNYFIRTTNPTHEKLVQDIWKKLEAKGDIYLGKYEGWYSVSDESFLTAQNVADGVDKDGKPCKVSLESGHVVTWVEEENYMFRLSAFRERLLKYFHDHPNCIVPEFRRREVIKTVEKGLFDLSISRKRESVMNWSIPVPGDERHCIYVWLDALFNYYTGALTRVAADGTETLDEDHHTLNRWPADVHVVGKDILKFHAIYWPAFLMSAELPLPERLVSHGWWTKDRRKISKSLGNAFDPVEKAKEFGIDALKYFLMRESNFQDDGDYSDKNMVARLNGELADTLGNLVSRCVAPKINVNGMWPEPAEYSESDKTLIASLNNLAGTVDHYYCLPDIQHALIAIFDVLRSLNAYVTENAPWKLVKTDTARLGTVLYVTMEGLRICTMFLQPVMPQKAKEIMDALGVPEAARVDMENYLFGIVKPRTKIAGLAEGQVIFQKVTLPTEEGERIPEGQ

All values are in %. How 0% and 100% were set is not recorded. Most values in the screen are low, and negative values occur. This is an unselected part of the compounds tested. A dash means the value is not listed here; it may have been measured.

LdMetRS: 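Primary screen of methionyl-tRNA synthetase; the read-out is not stated. Target: Methionyl-tRNA synthetase (putative), Leishmania donovani (UniProt E9BF75). The test concentration is not given. Values are per cent inhibition. Of about 68,000 compounds tested this way, about 24 (0.035%) reached 50% or more in at least one test.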
Mtb heat-shock: 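Assay on Mycobacterium tuberculosis, filed only as a heat shock assay from Cornell; the read-out is not stated. The concentration is filed as 10 mM, unlikely as a test dose, so the dose is not known. The record gives no direction; compounds that gave an IC50 in retests scored well above the rest, so higher reads as stronger inhibition. About 69,000 compounds were tested under these conditions; 1.4% (about 930) showed 50% or more at least once.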

| structure | LdMetRS | Mtb heat-shock |
|---|---|---|
| `COCc1nccc(C2CCCN(Cc3cccc(F)c3)C2)n1` (centres undefined) | 10.89% | -5.269% |
| `CC(=O)NCC(=O)N1CCOCC(Cc2ccc3c(ccn3C)c2)C1` (centres undefined) | 15.31% | 10.75% |
| `Cc1cnc(C(C)(C)NC(=O)NCc2ccc(C#N)cc2F)s1` | 16.3% | 1.196% |
| `[H][C@]12CCN(C(=O)Cc3ccc4c(c3)CCCC4)CC[C@]1([H])N(C)C(=O)CO2` | - | -2.99% |
| `CCc1nnc(CN2CCc3cnc(C)nc3C2)o1` | 2.857% | 16.54% |
| `CCCc1ccc(S(=O)(=O)NC2(CC(N)=O)CCC2)cc1` | 12.5% | 12.74% |
| `O=C(c1ccccc1)N1CCN(CC2CCOc3ccccc3C2)CC1` (centres undefined) | 3.226% | -2.696% |
| `CCCN1C(=O)C2(CCCCC2)NC1c1c[nH]nc1-c1cccnc1` (centres undefined) | 13.19% | -17.56% |
| `O=C([C@H]1COC[C@H]2CN(C3CCOCC3)C[C@H]21)N1CCCCO1` | 8.795% | - |
| `CCC(=O)NC1CCCN(Cc2ccc(NC(C)=O)cc2)C1` (centres undefined) | 7.902% | 19.49% |
| `CCN(Cc1ccc2c(c1)OCCO2)C(=O)NCc1csc(C)n1` | 12.03% | 9.793% |
| `[H][C@@]12CS(=O)(=O)C[C@]1([H])N(C(=O)c1ccc(OC)o1)CCN2C(=O)CC` | - | 16.56% |
| `Cc1cc(C2CCCN2S(=O)(=O)c2cnn(C)c2)on1` (centres undefined) | 15.82% | 4.056% |
| `O=C(CN1CCS(=O)(=O)CC1)NCc1cccc(Br)c1` | 2.747% | -20.83% |
| `Cn1cccc1C(=O)NCc1cnc2n1CCN(CC1CCOCC1)C2` | 15.69% | - |
| `CNC(=O)Cc1noc(Cc2cccc(Br)c2)n1` | -8.462% | -13.24% |
| `N[C@H]1CN(C(=O)Cc2ccc(Cl)c(Cl)c2)C[C@@H]1C1CC1` | 14.03% | 3.318% |
| `CCc1nnc2n1CC(CNc1cnc3ccccc3n1)CC2` (centres undefined) | 7.829% | -8.425% |
| `[H][C@@]12C[C@H](C(=O)Nc3ccccc3)[C@@]([H])(CN(C(=O)Nc3ccccc3)C1)O2` | - | -23.44% |
| `O=C(COC[C@@]12CCC[C@@H]1CN(C1CCCC1)C2)N1CCCC1` | 18.09% | - |
| `Cc1nc(CN2CCN(C(C)c3nc(C(C)C)no3)CC2)oc1C` (centres undefined) | 25.26% | -8.787% |
| `Cc1nc(CN2CCCC(Nc3ncnc4ccsc34)C2)no1` (centres undefined) | 21.82% | 2.844% |
| `CC(C)c1n[nH]c(C2CN(C(=O)c3cc(C(N)=O)cs3)CCO2)n1` (centres undefined) | 4% | -2.05% |
| `[H][C@@]12CS(=O)(=O)C[C@]1([H])N(Cc1cc(OC)cc(OC)c1)CCN2CC1CC1` | - | -13.77% |
| `CC(=O)N1CCCCC1c1nc2c(c(N3CCCCC3)n1)CN(C)CC2` (centres undefined) | 19.52% | 14.47% |
| `O=C(CCC1CCCO1)NCc1ccccc1Cn1cncn1` (centres undefined) | 17.71% | 8.018% |
| `CN(C)C(=O)CN1C(=O)CO[C@@H]2CN(c3ccccn3)C[C@H]21` | 8.772% | - |
| `Cc1nc2n(n1)CC(NCc1nc(C)c(C)o1)CC2` (centres undefined) | 12.58% | -5.268% |
| `CCC(CO)N(Cc1cccc(-n2cccn2)c1)Cc1cccs1` (centres undefined) | 3.377% | -38.9% |
| `COc1cccc(OCC2CCCN(C(=O)c3ncc(F)cc3F)C2)c1` (centres undefined) | 12.39% | 6.536% |
| `COc1cccc(CC2(C(=O)O)CCN(c3nccs3)CC2)c1` | 14.08% | 13.13% |
| `CCn1ccnc1CN1CCN(Cc2ccc(C#N)cc2)CC1` | 6.122% | -14.98% |
| `CCN(CC)Cc1cc(=O)n2c(n1)CN(S(=O)(=O)C1CC1)CCC2.O=C(O)C(F)(F)F` | - | 33.84% |
| `Cc1cc(Nc2ccc(F)cn2)cc(C2CCN(Cc3ncc[nH]3)C2)n1` (centres undefined) | 20.44% | 11.98% |
| `CS(=O)(=O)c1ccc(Cl)c(NC(=O)NCCC2=CCCCC2)c1` | -0.2825% | -19.98% |
| `CC(=O)N1CC(=O)N(c2cccnc2)CC12CCN(Cc1nccs1)C2` (centres undefined) | 1.481% | - |
| `CCOCc1nc2c(c(NCCNC(C)=O)n1)CCN(C(C)=O)CC2` | -1.031% | -3.345% |
| `C=C(C)COc1ccc(C(=O)NCC2CC(CC)=NO2)cc1` (centres undefined) | 6.143% | 7.202% |
| `O=S(=O)(CCSc1nccn1C1CC1)c1ccccc1` | -9.317% | 1.734% |
| `COCCN1CCN(C(=O)c2ccccc2C(C)=O)[C@H]2CS(=O)(=O)C[C@H]21` | 5.955% | - |
| `Cc1ccccc1-c1ncc(CNCc2csc(C(C)C)n2)s1` | 20% | 25.06% |
| `COCCC(=O)N1C[C@H]2CN(Cc3cccnc3)C(=O)[C@H]2C1` | 7.843% | - |
| `Cn1cccc1C(=O)N1CC[C@H]2[C@H]1CCN2CC1CC1` | 10.73% | - |
| `CN(C)CC1(O)CCCN(C(=O)CCn2cc(Cl)cn2)C1` (centres undefined) | -5.367% | -46.48% |
| `Cn1nc(C(=O)NC2(c3ccc(Cl)cc3)CCCC2)ccc1=O` | 8.009% | -0.9747% |
| `Cc1noc(C)c1C(=O)NCc1cccnc1N(C)C` | 18.95% | -5.418% |
| `CC[C@H]1CN2CC[C@H]1C[C@@H]2CNC(=O)NC1CCCCC1` | 12.64% | - |
| `CCN(Cc1ccc2c(c1)OCO2)C(=O)c1cccnc1O` | 18.58% | 15.39% |
| `Cc1csc(CN(C)C(=O)Nc2cc(F)cc(N3CCCC3)c2)n1` | 12.63% | 8.231% |
| `Cc1cc(N2CCCC(N(C)C)C2)n2nccc2n1` (centres undefined) | 11.15% | -2.392% |
| `Cc1nc(CNC(=O)Nc2cc(F)ccc2OC(F)F)no1` | 15.22% | 4.364% |
| `Cc1cc(C(=O)NCCc2cn3nc(C)sc3n2)c(C)o1` | 13.71% | 0.03024% |
| `CCOC(=O)C1CCN(c2nccc(-n3nc(C)cc3C)n2)CC1` | 19.35% | -14.09% |
| `NC(=O)CN(Cc1ncc(-c2ccccc2)o1)C1CCCC1` | 3.631% | -33.36% |
| `CC(=O)N1CCC(Cc2cnc(Nc3cc(C)on3)cn2)CC1` | 6.824% | 3.247% |
| `O=C(c1sccc1C1CC1)N1CCCN(Cc2cscn2)CC1` | 28.73% | 19.76% |
| `Cc1ccc(CN2C[C@@H]3CN(c4ncccn4)C[C@@H]3C2)cc1` | 12.11% | - |
| `Cc1cc(C)n(CC(C)NC(=O)c2cc(C(C)C)on2)n1` (centres undefined) | -8.521% | 3.544% |
| `O=C(c1c[nH]c(=O)[nH]c1=O)N1CCCC(c2cnccn2)C1` (centres undefined) | 16.24% | -6.091% |

The last 6 entries again:

* NC(=O)CN(Cc1ncc(-c2ccccc2)o1)C1CCCC1 : LdMetRS: 3.631%; Mtb heat-shock: -33.36%
* CC(=O)N1CCC(Cc2cnc(Nc3cc(C)on3)cn2)CC1 : LdMetRS: 6.824%; Mtb heat-shock: 3.247%
* O=C(c1sccc1C1CC1)N1CCCN(Cc2cscn2)CC1 : LdMetRS: 28.73%; Mtb heat-shock: 19.76%
* Cc1ccc(CN2C[C@@H]3CN(c4ncccn4)C[C@@H]3C2)cc1 : LdMetRS: 12.11%
* Cc1cc(C)n(CC(C)NC(=O)c2cc(C(C)C)on2)n1 (centres undefined) : LdMetRS: -8.521%; Mtb heat-shock: 3.544%
* O=C(c1c[nH]c(=O)[nH]c1=O)N1CCCC(c2cnccn2)C1 (centres undefined) : LdMetRS: 16.24%; Mtb heat-shock: -6.091%